# Experimental data: the supplement of paper PMC12067093, “Discovery and optimisation of a covalent ligand for TRIM25 and its application to targeted protein ubiquitination” (Chemical Science, 2025)
# Chains of the proteins cited; added tags and fusions are not shown. Lines headed by an entry give the natural chain unless they say otherwise; changes in a name come on top.
# UniProt Q86U44, whole entry, looked up: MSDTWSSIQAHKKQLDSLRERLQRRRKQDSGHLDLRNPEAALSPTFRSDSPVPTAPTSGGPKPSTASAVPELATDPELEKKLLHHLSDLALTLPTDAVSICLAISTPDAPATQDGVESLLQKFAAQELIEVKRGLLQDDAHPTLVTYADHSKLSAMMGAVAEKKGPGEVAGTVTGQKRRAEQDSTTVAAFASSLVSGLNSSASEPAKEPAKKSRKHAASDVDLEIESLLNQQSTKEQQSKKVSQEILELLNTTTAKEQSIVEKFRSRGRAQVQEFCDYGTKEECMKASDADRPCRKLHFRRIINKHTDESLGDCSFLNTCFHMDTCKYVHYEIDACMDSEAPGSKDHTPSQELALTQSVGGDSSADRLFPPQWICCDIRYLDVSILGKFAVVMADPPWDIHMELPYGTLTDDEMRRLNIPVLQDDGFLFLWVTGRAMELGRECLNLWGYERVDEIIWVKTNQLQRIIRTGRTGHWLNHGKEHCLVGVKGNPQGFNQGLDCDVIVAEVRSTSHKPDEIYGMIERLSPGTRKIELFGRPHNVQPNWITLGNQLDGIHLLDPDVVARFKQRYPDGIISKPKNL
# UniProt P25205: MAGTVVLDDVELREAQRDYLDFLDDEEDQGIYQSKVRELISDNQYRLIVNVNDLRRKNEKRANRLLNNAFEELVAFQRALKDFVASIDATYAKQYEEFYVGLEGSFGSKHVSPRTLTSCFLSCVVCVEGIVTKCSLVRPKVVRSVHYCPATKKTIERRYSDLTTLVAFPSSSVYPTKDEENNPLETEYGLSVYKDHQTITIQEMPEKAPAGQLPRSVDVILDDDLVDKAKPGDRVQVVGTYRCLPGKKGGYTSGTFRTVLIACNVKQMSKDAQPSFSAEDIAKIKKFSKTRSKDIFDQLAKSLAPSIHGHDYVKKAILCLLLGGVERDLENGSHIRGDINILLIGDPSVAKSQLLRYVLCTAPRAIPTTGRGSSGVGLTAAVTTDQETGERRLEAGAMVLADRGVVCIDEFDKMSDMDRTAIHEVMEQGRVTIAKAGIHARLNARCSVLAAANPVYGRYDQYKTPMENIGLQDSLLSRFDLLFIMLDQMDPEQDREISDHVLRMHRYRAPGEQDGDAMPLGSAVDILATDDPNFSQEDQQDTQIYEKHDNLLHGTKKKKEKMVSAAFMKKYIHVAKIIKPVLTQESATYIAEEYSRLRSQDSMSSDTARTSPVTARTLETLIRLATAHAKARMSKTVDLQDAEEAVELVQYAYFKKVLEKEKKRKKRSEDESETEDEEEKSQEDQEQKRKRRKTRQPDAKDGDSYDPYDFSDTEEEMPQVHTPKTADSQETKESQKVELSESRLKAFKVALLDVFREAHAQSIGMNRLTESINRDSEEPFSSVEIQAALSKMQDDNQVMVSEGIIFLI
# UniProt P50579: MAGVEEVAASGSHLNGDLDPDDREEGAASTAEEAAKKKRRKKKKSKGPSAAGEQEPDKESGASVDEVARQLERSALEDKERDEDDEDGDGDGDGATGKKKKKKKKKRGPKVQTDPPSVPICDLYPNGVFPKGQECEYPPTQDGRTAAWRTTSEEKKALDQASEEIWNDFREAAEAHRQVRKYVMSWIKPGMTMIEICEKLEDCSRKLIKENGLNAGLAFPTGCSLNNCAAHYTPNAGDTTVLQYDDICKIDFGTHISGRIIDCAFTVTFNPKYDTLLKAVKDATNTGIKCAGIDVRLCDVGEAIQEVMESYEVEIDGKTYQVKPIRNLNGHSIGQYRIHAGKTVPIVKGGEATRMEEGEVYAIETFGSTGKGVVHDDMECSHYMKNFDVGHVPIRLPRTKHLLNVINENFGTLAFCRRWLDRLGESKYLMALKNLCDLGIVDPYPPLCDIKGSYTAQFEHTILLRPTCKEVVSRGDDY
# UniProt Q96PE7: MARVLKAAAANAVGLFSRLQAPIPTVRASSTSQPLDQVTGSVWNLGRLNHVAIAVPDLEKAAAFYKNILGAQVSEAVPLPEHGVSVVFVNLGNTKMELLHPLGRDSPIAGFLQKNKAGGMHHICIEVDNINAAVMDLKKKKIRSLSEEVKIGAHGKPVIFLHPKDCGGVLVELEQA
# UniProt P16455, whole entry, looked up: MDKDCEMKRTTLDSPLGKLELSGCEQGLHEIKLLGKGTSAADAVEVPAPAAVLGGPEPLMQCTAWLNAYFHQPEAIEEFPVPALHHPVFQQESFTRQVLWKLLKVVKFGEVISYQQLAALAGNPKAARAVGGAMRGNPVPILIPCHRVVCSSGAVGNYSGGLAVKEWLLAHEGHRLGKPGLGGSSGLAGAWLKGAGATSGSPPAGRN
# UniProt P33992: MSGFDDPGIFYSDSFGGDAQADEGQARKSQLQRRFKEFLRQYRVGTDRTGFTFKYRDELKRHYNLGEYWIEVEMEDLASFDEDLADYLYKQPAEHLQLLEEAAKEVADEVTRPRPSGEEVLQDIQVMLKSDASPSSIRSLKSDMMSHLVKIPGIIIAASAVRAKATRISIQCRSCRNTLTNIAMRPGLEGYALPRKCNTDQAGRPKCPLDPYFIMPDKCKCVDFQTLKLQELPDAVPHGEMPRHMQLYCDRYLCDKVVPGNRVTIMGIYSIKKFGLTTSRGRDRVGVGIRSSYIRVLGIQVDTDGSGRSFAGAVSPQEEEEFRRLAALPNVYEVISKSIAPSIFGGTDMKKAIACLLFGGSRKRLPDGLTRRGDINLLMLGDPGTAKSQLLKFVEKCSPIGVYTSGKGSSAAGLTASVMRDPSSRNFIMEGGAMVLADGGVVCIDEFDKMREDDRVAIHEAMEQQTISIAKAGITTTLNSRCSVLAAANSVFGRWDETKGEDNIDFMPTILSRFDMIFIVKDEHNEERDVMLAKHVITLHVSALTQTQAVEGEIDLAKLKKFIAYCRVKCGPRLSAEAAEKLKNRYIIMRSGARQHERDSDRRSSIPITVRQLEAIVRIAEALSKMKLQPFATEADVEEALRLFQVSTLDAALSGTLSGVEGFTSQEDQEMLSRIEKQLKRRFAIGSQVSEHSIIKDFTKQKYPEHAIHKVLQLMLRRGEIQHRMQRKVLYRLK
# UniProt Q9UHV7: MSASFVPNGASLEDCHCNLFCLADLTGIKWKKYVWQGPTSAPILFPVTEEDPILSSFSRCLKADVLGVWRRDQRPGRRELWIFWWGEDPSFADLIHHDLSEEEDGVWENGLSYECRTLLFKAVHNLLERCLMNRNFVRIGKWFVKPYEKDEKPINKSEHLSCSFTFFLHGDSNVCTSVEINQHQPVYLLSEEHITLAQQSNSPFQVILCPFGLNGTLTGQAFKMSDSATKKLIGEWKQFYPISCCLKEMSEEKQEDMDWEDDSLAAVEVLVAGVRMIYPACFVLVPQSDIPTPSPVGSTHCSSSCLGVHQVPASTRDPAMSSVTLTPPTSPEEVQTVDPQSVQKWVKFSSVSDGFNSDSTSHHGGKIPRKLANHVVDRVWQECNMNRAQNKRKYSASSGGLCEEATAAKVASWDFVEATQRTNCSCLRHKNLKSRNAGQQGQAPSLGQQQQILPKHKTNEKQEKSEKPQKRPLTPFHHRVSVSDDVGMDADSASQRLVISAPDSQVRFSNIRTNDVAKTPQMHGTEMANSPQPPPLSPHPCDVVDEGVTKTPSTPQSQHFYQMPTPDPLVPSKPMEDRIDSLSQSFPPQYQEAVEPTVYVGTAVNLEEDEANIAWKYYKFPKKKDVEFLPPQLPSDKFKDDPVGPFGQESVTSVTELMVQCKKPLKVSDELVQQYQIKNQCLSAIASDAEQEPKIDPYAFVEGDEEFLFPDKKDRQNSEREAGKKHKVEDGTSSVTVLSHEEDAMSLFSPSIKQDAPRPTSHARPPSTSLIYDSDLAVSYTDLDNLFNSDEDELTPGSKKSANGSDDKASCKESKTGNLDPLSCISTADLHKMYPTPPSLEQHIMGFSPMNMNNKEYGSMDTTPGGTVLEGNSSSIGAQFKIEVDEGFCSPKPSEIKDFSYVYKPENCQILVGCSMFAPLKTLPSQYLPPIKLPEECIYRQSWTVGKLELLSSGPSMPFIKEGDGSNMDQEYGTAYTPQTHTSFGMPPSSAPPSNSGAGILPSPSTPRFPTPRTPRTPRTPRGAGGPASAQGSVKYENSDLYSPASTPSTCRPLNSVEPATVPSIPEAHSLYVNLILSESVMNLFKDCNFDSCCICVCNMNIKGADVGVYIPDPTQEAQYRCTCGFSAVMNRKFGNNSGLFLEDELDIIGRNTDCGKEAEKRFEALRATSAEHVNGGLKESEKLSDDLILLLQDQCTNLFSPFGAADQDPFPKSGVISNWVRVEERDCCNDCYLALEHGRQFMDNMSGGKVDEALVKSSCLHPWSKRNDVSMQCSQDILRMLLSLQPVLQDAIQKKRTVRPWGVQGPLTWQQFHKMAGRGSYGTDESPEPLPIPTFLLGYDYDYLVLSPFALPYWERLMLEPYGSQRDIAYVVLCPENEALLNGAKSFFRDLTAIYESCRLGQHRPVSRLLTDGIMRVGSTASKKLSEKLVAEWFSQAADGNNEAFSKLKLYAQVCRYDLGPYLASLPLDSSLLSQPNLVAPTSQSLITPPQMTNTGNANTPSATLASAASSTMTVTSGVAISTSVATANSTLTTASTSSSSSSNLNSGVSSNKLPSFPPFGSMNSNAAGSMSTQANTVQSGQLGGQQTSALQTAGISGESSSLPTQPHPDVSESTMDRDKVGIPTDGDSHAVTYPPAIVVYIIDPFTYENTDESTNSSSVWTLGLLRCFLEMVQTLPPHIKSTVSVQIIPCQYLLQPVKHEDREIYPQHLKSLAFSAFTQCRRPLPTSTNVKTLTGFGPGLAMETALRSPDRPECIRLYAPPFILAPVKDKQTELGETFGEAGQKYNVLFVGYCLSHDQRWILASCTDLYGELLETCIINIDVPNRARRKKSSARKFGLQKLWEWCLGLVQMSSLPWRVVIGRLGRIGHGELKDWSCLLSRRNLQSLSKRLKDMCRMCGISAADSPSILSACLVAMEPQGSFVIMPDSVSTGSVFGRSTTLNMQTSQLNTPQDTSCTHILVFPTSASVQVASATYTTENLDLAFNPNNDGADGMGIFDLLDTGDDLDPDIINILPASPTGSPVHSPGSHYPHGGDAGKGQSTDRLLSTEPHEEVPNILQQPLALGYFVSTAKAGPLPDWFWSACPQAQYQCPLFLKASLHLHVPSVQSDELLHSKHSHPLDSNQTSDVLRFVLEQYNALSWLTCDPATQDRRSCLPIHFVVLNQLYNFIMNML
# UniProt P23368: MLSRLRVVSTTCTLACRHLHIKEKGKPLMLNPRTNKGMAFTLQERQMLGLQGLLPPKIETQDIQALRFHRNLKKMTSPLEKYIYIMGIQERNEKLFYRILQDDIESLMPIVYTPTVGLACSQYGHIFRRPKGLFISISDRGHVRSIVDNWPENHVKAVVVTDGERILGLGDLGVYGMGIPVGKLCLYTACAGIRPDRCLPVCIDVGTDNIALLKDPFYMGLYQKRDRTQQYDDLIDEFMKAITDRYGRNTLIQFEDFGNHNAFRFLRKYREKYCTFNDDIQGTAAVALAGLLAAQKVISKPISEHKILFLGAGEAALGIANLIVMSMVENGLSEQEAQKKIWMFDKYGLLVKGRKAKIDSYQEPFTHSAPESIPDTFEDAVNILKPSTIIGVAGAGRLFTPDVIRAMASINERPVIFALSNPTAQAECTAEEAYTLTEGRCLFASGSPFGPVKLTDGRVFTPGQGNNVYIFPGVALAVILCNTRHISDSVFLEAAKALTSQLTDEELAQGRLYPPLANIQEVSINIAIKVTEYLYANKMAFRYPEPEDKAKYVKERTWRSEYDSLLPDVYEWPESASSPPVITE
# UniProt P08582: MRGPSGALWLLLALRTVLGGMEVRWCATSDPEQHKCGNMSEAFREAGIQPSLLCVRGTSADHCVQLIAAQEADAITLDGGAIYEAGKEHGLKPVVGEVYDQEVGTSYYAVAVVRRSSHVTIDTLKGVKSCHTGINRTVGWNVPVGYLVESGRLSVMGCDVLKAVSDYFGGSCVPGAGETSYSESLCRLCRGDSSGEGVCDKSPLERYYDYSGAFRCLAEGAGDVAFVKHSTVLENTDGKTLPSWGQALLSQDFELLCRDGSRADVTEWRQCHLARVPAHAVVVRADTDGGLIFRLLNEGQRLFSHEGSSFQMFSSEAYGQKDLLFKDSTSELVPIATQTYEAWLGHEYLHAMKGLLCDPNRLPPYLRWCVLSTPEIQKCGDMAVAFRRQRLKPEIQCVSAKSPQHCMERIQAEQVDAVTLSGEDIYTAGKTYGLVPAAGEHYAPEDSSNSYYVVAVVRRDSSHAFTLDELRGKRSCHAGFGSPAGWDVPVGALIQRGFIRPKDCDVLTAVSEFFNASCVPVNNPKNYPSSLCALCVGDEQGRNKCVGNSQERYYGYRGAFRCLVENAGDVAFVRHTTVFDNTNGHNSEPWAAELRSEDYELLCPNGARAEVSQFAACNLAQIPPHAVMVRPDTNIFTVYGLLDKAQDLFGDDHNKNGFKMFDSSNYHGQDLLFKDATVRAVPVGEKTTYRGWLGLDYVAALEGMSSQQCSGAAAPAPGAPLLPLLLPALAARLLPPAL
# This is one part of the list.
# Compound: Cc1cc(ccc1-c1ccccc1)C(=O)N1CCCN(CC1)C(=O)CCl [compound 10]
# Test: probe-labelled cysteine peptide fold change vs DMSO (competition) (log2 fold change); higher = less target engagement (more negative = stronger competition)
# Conditions: 10 µM; THP-1; incubation time: 4 h
# 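Also: competitive profiling in live THP-1 cells: cysteine peptides tagged with an iodoacetamide desthiobiotin (IA-DTB) probe, intensity after compound treatment relative to DMSO-treated cells.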
row,Target,probe-labelled cysteine peptide fold change
1,METTL3_Q86U44_320+326_HTDESLGDCSFLNTCFHMDTCK (UniProt Q86U44),-0.102
2,MCM3_P25205_446_CSVLAAANPVYGR (UniProt P25205),-0.148
3,MEFV_O15553_521_ECQSEWELLQDIGDILHR (UniProt O15553),-0.151
4,MGA_Q8IWI9_1146_KLEYTICETEPEQPVR (UniProt Q8IWI9),-0.333
5,MEPCE_Q7L2J0_463_GRDVLDLGCNVGHLTLSIACK (UniProt Q7L2J0),0.00412
6,MCM2_P49736_315_TSGVVTSCTGVLPQLSMVK (UniProt P49736),-0.0956
7,MCM6_Q14566_161_THPVHPELVSGTFLCLDCQTVIR (UniProt Q14566),0.209
8,MCM6_Q14566_393_TTGEGTSLRGDINVCIVGDPSTAK (UniProt Q14566),-0.173
9,METAP1_P53582_194_SCCTSVNEVICHGIPDR (UniProt P53582),-0.136
10,MGST3_O14880_56_VEYPIMYSTDPENGHIFNCIQR (UniProt O14880),-0.27
11,METAP2_P50579_380_GVVHDDMECSHYMK (UniProt P50579),-0.28
12,MDN1_Q9NU22_95_LCVSMSK (UniProt Q9NU22),-0.101
13,MCEE_Q96PE7_166_DCGGVLVELEQA (UniProt Q96PE7),-0.0643
14,MCM4_P33991_572_QLVLQTGALVLSDNGICCIDEFDK (UniProt P33991),0.0291
15,MGMT_P16455_145_GNPVPILIPCHR (UniProt P16455),-1.04
16,MCM5_P33992_355_KAIACLLFGGSR (UniProt P33992),-0.131
17,MCM3_P25205_319_KAILCLLLGGVER (UniProt P25205),-0.268
18,MED24_O75448_546_ILNPDHPCFRPDSTKVESLVALLNNSSEMK (UniProt O75448),-0.254

row,Target,probe-labelled cysteine peptide fold change
1,MEFV_O15553_315+327_CHAQEGDPVDGTCVR (UniProt O15553),-0.668
2,MCM6_Q14566_393_GDINVCIVGDPSTAK (UniProt Q14566),0.134
3,MDC1_Q14676_128_DQELILFADLLCQYHR (UniProt Q14676),0.245
4,MCM5_P33992_207_CPLDPYFIMPDK (UniProt P33992),-0.0843
5,MEPCE_Q7L2J0_244_DITDPLSLNTCTDEGHVVLASPLK (UniProt Q7L2J0),0.0803
6,MCMBP_Q9BTE3_3_PCGEDWLSHPLGIVQGFFAQNGVNPDWEK (UniProt Q9BTE3),-0.562
7,MCM4_P33991_306+309_TSQLIPEMQEAFFQCQVCAHTTR (UniProt P33991),0.0367
8,MED13_Q9UHV7_1228_DCCNDCYLALEHGR (UniProt Q9UHV7),-0.00488
9,MED27_Q6P2C8_309_TLEAFHDTCR (UniProt Q6P2C8),0.00649
10,MCM5_P33992_197_KCNTDQAGRPK (UniProt P33992),0.0381
11,METTL5_Q9NRN9_107+110_NAEEFELTNIDMVQCDVCLLSNR (UniProt Q9NRN9),0.0535
12,MCM3_P25205_119+123+126_TLTSCFLSCVVCVEGIVTK (UniProt P25205),-0.0216
13,MDN1_Q9NU22_3263_EELHQLQCEWK (UniProt Q9NU22),-0.052
14,MCM6_Q14566_636_MHCCDEVQPK (UniProt Q14566),0.0478
15,ME2_P23368_274_YCTFNDDIQGTAAVALAGLLAAQK (UniProt P23368),0.0399
16,MCM3_P25205_319_AILCLLLGGVER (UniProt P25205),-0.0228
17,MELTF_P08582-2_256_SEEEEGECPAHEEAR (UniProt P08582),-0.0519
18,MDC1_Q14676_128_LRDQELILFADLLCQYHR (UniProt Q14676),0.245

# Same assay, conditions: 50 µM; THP-1; incubation time: 4 h
row,Target,probe-labelled cysteine peptide fold change
1,METTL3_Q86U44_320+326_HTDESLGDCSFLNTCFHMDTCK (UniProt Q86U44),0.0484
2,MCM3_P25205_446_CSVLAAANPVYGR (UniProt P25205),0.0959
3,MEFV_O15553_521_ECQSEWELLQDIGDILHR (UniProt O15553),-0.21
4,MGA_Q8IWI9_1146_KLEYTICETEPEQPVR (UniProt Q8IWI9),-0.12
5,MEPCE_Q7L2J0_463_GRDVLDLGCNVGHLTLSIACK (UniProt Q7L2J0),-0.0585
6,MCM2_P49736_315_TSGVVTSCTGVLPQLSMVK (UniProt P49736),0.246
7,MCM6_Q14566_161_THPVHPELVSGTFLCLDCQTVIR (UniProt Q14566),0.0343
8,MCM6_Q14566_393_TTGEGTSLRGDINVCIVGDPSTAK (UniProt Q14566),-0.351
9,METAP1_P53582_194_SCCTSVNEVICHGIPDR (UniProt P53582),-0.176
10,MGST3_O14880_56_VEYPIMYSTDPENGHIFNCIQR (UniProt O14880),0.0241
11,METAP2_P50579_380_GVVHDDMECSHYMK (UniProt P50579),-0.388
12,MDN1_Q9NU22_95_LCVSMSK (UniProt Q9NU22),-0.304
13,MCEE_Q96PE7_166_DCGGVLVELEQA (UniProt Q96PE7),0.17
14,MCM4_P33991_572_QLVLQTGALVLSDNGICCIDEFDK (UniProt P33991),-0.025
15,MGMT_P16455_145_GNPVPILIPCHR (UniProt P16455),-1.29
16,MCM5_P33992_355_KAIACLLFGGSR (UniProt P33992),-1.02
17,MCM3_P25205_319_KAILCLLLGGVER (UniProt P25205),-0.712
18,MED24_O75448_546_ILNPDHPCFRPDSTKVESLVALLNNSSEMK (UniProt O75448),-0.636

row,Target,probe-labelled cysteine peptide fold change
1,MEFV_O15553_315+327_CHAQEGDPVDGTCVR (UniProt O15553),-0.706
2,MCM6_Q14566_393_GDINVCIVGDPSTAK (UniProt Q14566),0.131
3,MDC1_Q14676_128_DQELILFADLLCQYHR (UniProt Q14676),0.852
4,MCM5_P33992_207_CPLDPYFIMPDK (UniProt P33992),-0.451
5,MEPCE_Q7L2J0_244_DITDPLSLNTCTDEGHVVLASPLK (UniProt Q7L2J0),-0.237
6,MCMBP_Q9BTE3_3_PCGEDWLSHPLGIVQGFFAQNGVNPDWEK (UniProt Q9BTE3),-0.982
7,MCM4_P33991_306+309_TSQLIPEMQEAFFQCQVCAHTTR (UniProt P33991),-0.127
8,MED13_Q9UHV7_1228_DCCNDCYLALEHGR (UniProt Q9UHV7),0.125
9,MED27_Q6P2C8_309_TLEAFHDTCR (UniProt Q6P2C8),0.266
10,MCM5_P33992_197_KCNTDQAGRPK (UniProt P33992),-0.659
11,METTL5_Q9NRN9_107+110_NAEEFELTNIDMVQCDVCLLSNR (UniProt Q9NRN9),-0.63
12,MCM3_P25205_119+123+126_TLTSCFLSCVVCVEGIVTK (UniProt P25205),-1.13
13,MDN1_Q9NU22_3263_EELHQLQCEWK (UniProt Q9NU22),0.234
14,MCM6_Q14566_636_MHCCDEVQPK (UniProt Q14566),-0.487
15,ME2_P23368_274_YCTFNDDIQGTAAVALAGLLAAQK (UniProt P23368),0.311
16,MCM3_P25205_319_AILCLLLGGVER (UniProt P25205),0.0412
17,MELTF_P08582-2_256_SEEEEGECPAHEEAR (UniProt P08582),0.438
18,MDC1_Q14676_128_LRDQELILFADLLCQYHR (UniProt Q14676),0.313
